Measurements: paper PMC6115913
Results are given in words; binding and its absence hold for the method and conditions named. Binding seen in cells or lysates may run through a third protein. Some entries that bind do so weakly or less than the wild type. For part of these data: Sequences can lack the tags named with a protein. Blank lines part the entries; values can stand above or below the molecule they belong to.

Chains of the proteins cited; added tags and fusions are not shown.
UniProt O60674: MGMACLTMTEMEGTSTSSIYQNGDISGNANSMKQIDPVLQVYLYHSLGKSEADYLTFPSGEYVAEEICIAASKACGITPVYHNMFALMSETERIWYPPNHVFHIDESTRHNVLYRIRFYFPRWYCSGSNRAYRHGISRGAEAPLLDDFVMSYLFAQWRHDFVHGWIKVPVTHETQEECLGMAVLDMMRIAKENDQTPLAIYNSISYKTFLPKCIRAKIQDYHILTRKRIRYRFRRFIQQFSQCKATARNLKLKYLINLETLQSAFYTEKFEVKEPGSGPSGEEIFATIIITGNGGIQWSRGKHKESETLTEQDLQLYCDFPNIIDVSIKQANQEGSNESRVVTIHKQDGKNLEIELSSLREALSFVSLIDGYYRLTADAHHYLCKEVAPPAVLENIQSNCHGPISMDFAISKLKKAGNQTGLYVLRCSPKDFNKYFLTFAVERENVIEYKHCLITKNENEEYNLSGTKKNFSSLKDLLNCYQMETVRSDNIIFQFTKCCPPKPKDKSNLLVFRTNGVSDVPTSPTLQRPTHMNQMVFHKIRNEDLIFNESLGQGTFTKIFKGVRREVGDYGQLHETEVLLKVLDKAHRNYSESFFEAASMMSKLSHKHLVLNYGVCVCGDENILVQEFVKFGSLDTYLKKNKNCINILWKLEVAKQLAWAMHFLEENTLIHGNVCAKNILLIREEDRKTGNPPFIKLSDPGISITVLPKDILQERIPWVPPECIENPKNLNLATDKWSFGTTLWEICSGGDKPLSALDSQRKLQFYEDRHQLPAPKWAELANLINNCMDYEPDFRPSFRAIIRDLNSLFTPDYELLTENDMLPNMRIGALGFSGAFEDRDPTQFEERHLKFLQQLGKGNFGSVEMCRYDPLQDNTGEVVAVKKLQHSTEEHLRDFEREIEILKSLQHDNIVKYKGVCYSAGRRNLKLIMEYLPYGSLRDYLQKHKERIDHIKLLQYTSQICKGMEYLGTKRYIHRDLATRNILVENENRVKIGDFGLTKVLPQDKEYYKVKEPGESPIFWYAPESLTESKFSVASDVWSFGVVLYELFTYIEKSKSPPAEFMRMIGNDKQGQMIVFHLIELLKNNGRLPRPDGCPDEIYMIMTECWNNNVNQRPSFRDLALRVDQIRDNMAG
UniProt P40763: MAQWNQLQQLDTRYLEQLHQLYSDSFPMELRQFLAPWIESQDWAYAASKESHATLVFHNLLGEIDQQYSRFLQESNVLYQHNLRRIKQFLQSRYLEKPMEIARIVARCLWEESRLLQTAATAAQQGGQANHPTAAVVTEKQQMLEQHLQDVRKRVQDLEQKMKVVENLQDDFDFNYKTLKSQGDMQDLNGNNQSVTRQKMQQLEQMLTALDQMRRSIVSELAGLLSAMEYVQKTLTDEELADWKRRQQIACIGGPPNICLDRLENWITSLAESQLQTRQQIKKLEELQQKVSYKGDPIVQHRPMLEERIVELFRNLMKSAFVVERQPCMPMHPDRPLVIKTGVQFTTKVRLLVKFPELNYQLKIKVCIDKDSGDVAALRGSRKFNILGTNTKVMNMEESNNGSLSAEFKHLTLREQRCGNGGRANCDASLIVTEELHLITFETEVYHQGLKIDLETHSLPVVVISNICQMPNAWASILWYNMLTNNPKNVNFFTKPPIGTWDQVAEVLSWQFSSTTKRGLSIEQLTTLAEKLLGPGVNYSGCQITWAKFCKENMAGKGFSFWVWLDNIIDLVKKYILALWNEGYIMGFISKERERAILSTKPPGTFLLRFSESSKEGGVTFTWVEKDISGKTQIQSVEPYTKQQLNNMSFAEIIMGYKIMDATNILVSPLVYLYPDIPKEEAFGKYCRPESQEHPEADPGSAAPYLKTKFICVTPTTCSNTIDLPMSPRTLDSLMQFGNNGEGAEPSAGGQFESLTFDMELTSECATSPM

How the values were obtained:
[1] = target: T1, Flag-tagged CEP55 (human) (UniProt Q53EZ4); experiment: co-IP; HepG2 cells with vector or Flag-CEP55; lysate (1% Triton X-100, 40 mM Hepes pH 7.5, 120 mM NaCl, 1 mM EDTA), 1 mg total protein; immunoprecipitation with anti-Flag mouse monoclonal antibody at 4 °C overnight, protein G-agarose; immunoblot
T1 sequence: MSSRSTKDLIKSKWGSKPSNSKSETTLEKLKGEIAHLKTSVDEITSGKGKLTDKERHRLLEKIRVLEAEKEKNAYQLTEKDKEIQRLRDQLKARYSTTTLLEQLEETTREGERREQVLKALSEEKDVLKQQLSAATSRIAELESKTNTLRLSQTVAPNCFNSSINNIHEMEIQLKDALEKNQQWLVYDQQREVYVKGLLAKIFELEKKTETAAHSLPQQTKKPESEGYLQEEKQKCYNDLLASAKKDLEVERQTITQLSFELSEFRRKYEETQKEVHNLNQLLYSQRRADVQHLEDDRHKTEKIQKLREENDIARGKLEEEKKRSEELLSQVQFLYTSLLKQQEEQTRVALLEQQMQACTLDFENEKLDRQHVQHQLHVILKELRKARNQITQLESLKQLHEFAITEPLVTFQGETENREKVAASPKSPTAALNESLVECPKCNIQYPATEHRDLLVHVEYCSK

[2] = target: JAK2 (endogenous) (human (endogenous in HepG2 and Hep3B)) (UniProt O60674); experiment: co-IP; Hep3B cells with vector or Flag-CEP55; lysate (1% Triton X-100, 40 mM Hepes pH 7.5, 120 mM NaCl, 1 mM EDTA); immunoprecipitation with anti-JAK2 mouse monoclonal antibody at 4 °C overnight, protein G-agarose; immunoblot
[3] = target: JAK2 (endogenous) (human (endogenous in HepG2 and Hep3B)) (UniProt O60674); experiment: co-IP; endogenous proteins in HepG2 cells; immunoprecipitation with CEP55 antibody, JAK2 antibody or mouse IgG at 4 °C overnight, protein G-agarose; immunoblot

- binding [1]: no binding
Molecule: STAT3 (endogenous) (from UniProt P40763 1-770)

- binding [2]: binds
B1: Flag-tagged CEP55 (protein, UniProt Q53EZ4 1-464)
chain: MSSRSTKDLIKSKWGSKPSNSKSETTLEKLKGEIAHLKTSVDEITSGKGKLTDKERHRLLEKIRVLEAEKEKNAYQLTEKDKEIQRLRDQLKARYSTTTLLEQLEETTREGERREQVLKALSEEKDVLKQQLSAATSRIAELESKTNTLRLSQTVAPNCFNSSINNIHEMEIQLKDALEKNQQWLVYDQQREVYVKGLLAKIFELEKKTETAAHSLPQQTKKPESEGYLQEEKQKCYNDLLASAKKDLEVERQTITQLSFELSEFRRKYEETQKEVHNLNQLLYSQRRADVQHLEDDRHKTEKIQKLREENDIARGKLEEEKKRSEELLSQVQFLYTSLLKQQEEQTRVALLEQQMQACTLDFENEKLDRQHVQHQLHVILKELRKARNQITQLESLKQLHEFAITEPLVTFQGETENREKVAASPKSPTAALNESLVECPKCNIQYPATEHRDLLVHVEYCSK

- binding [3]: binds
B2: CEP55 (endogenous) (protein, UniProt Q53EZ4 1-464)
chain: MSSRSTKDLIKSKWGSKPSNSKSETTLEKLKGEIAHLKTSVDEITSGKGKLTDKERHRLLEKIRVLEAEKEKNAYQLTEKDKEIQRLRDQLKARYSTTTLLEQLEETTREGERREQVLKALSEEKDVLKQQLSAATSRIAELESKTNTLRLSQTVAPNCFNSSINNIHEMEIQLKDALEKNQQWLVYDQQREVYVKGLLAKIFELEKKTETAAHSLPQQTKKPESEGYLQEEKQKCYNDLLASAKKDLEVERQTITQLSFELSEFRRKYEETQKEVHNLNQLLYSQRRADVQHLEDDRHKTEKIQKLREENDIARGKLEEEKKRSEELLSQVQFLYTSLLKQQEEQTRVALLEQQMQACTLDFENEKLDRQHVQHQLHVILKELRKARNQITQLESLKQLHEFAITEPLVTFQGETENREKVAASPKSPTAALNESLVECPKCNIQYPATEHRDLLVHVEYCSK
